Source: patent USRE30241E, “Esters of 3-(hydroxy or hydroxymethyl)-4-hydroxyphenyl aminomethyl ketones” (Sterling Drug Inc., priority 1970, dated 1980)
For at least one compound, name, drawing or mass did not settle the structure.

Tested on: guinea pig bronchioles constricted by carbachol
Assay: Bronchodilator Test Method II, in vitro perfused guinea pig lung
Settings: dose 25 mcg (base), Doryl conc. 1:10 million
Protocol: In this method bronchodilator activity in vitro was determined by testing the effect of graded doses of the test compounds on guinea pig bronchioles constricted by carbachol, using the technique reported by Sollman and von Oettingen, Proc. Soc, Exp. Biol. Med., 25,692 (1928) as modified by Tainter, Pedden, and James, J. Pharm. Exp. Ther., 51, 371 (1934) and by Luduena, von Euler, Tullar, and Lands, Arch. intern. Pharmacol., III, 392 (1957).

CCCC(C)(C)C(=O)Oc1ccc(C(O)CNC(C)(C)C)cc1O (stereo not drawn) [Example 140, 3-hydroxy-4-(2,2-dimethylpentanoyloxy)-alpha-(tert-butylaminomethyl)benzylalcohol methanesulfonate]
Duration, Mean: 10 >30
